Reference: PMC5021340
Construct, isoform or probe ends are uncertain for at least one entry. No signal at the amounts used counts as a negative. At least one verdict rests on a figure or table, not on a statement of the authors.

Molecular target: Mig1 (Xanthophyllomyces dendrorhous) (UniProt A0A1C9UL02)
Experiment: EMSA
Details: poly(dI-dC), 20 mM HEPES pH 7.9, 50 mM KCl, 1 mM DTT, 0.1 mM EDTA, 5% glycerol (+2.5%), 200 ug/ml BSA, 50 ng/ul poly(dI-dC), 0.05% NP-40, 20 fmol DNA, 10 ug Mig1 in 20 ul, recombinant protein, label: 5' biotin
[1] = shift lost with unlabelled DNA, probe letters rebuilt from the primers and the genome

Q: Does “CAGAAGATGGGTCCACCGATAGTGGTTTGAAAGGAGATGGGTGGAATAGAGACAAATGGGGAATTCCAGTTTTGCCTTTGACGAGAAAGGACACTGGGTTGGAAAGAGAAGATGGTACGTTCTTCTCCACCTTGAATGTGTTGCTTACTAGACATGTTTGACACGCTAATGCATTTCTTTCCACTTTGACTTTTGAACTATGGTGGTTGGGCGATCCCCAAAATCATTAGCTTCTACTTCAGCTCATTACCTCG (double strand) [crtYB promoter 254 bp]” bind [1]?
A: Result: binds

Q: Does “CATCCATCAGAGGTGCAGCCGCTGCTGGACGAGGTGGGGCCTCGACCAGGGGTGCTAGAGGTGGACGGGCGCCGACGACATTATTCGCAGGTGCACTGGGTAAAGCCCAGGCAAGTGGAACGGGCACAAAACGAGCTCGACCGGAAGATGATGCGGCGGCAACTGGTTCTGGGCTGGGGAACACCCTATTCGACCGGTTGAATG (double strand) [crtS promoter boxes B-C 204 bp]” bind [1]?
A: Result: binds

Q: Does “GACCGGGCTCGACTGTCGAACGAGCGGACCAGAGATGCCGGCGAGATGGGCTG (double strand) [grg2 box B (-220) 53 bp]” bind?
A: Result: no binding

Q: Does “GGCATCGAAACCTGGGCTGACTCGGCCGTCGAAACCCCGGGTGAGCTCAGGTTCTTCATCGACAACTACGGCTGTCGAGAGTGGGCCGGCTGGTAGAACACGGGCGGCGGCTGCGACGGGGGGTGCGGCTTTAGGCCCTGCAACTGCGTCTGGAGCAAGTGCTGCCACTGAGGCCGCTGTGGC (double strand) [crtS promoter box A 183 bp]” bind [1]?
A: Result: binds
